The target in the experiment is T1, Trm112 (S. cerevisiae) (UniProt P53738).
T1 sequence: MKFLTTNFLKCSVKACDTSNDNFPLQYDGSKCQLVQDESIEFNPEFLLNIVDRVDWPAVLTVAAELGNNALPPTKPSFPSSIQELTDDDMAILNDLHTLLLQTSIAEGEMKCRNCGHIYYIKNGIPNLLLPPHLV
Nature of the experiment: co-purification (Ni-NTA affinity, then SEC); Trm11 and His x 6-Trm112 co-expressed in E. coli; supernatant of disrupted cells on Ni-NTA in buffer A (50 mM Tris-HCl pH 7.6, 5 mM MgCl2, 200 mM KCl, 20 mM imidazole), eluted with 500 mM imidazole; tag cut with HRV3C, second Ni-NTA (flow-through), Superdex 75 in buffer C; fractions assessed by 15% SDS-PAGE.

Results are given in words; binding and its absence hold for the method and conditions named. Some binding calls cover weakened binding; strength is not graded here.

B1: Trm11 (enzyme, UniProt Q12463 1-433)
chain: MKKYLLYMVQVHLNFRRAELESLADLYNLSIDFSQYDANSPFFIVELENDQQAKDWIKRSILTRGIYEYWGQGTTLDELHKDIQRQSNFEQDLQLKFKHSTFKFEFECYKGNSKAKRVEQIETFRYLGFEGKIDMKHPQEVFTVIEEYTPISENVGGKTPTRIYFGRQVQMSNRSAMEKYDLKKRPYKGTTSFEAELSLVSANIAQVKPGTIMYDPFAGTGSFLVAGGHFGSLVIGSDIDGRMIRGKGAQVNISANFKKYGESSQFLDVLTMDFTNNALRNNLVIDTILCDPPYGIRESIKVLGAKDPERFLGKEDMEIDGEKAYLRRDYIPTKKPYALDSLLDDLLQYSSERLPIGGRLAFWMPTANDANIETIVPMHENLELKYNCVQEFNKWSRRLLVYINRGSTFNGSSNHGIKRSKDNFRERYFNNFN
As to B1, the binding result is given as “binds”.

(Values after PMC8999500.)
